In paper PMC11602133:
The exact form of at least one protein or probe is not confirmed.

The chains behind the UniProt entries cited, without tags or fusion partners. Where a name states a change or a piece, a line headed by the entry shows the natural chain unless it says otherwise.
UniProt P17839: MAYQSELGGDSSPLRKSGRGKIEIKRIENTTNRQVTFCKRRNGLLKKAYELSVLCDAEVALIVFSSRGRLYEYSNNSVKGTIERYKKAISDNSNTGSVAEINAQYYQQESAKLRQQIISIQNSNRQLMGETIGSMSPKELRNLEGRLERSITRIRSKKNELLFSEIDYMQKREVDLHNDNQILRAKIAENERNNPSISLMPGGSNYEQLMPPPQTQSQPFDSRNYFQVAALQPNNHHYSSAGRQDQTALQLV
UniProt O22456: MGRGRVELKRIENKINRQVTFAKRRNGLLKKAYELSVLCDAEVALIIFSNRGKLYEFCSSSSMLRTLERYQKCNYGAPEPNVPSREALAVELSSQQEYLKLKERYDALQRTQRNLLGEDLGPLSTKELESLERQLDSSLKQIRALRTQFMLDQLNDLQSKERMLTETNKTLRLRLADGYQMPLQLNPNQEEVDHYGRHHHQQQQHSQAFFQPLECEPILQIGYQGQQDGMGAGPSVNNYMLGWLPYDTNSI
UniProt O64645: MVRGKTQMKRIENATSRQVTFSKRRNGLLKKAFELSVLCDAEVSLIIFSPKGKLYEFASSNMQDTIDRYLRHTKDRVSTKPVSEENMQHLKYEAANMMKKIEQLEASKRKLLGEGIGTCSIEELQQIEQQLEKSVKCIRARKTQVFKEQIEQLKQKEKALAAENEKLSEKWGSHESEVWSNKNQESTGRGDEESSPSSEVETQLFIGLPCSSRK

Legend:
Assay in all cases: EMSA
FUL-GFP (F-G) + AG = settings: size-shifted complex; EMSA per Smaczniak et al. (ref 17) with minor modifications; in vitro wheat germ TnT proteins; pH and temperature not stated; protein translated in vitro; protein details: linker-GFP (C-term); label: DY-682; probe letters rebuilt from the primers and the genome; part of a longer molecule
[1] = system: FUL-GFP (F-G) + AG + SEP3; settings: size-shifted complex; EMSA per Smaczniak et al. (ref 17) with minor modifications; in vitro wheat germ TnT proteins; pH and temperature not stated; protein translated in vitro; protein details: linker-GFP (C-term); label: DY-682; probe letters rebuilt from the primers and the genome; part of a longer molecule
[2] = target: AG (Arabidopsis thaliana) (UniProt P17839); settings: homodimer; EMSA per Smaczniak et al. (ref 17) with minor modifications; in vitro wheat germ TnT proteins; pH and temperature not stated; protein translated in vitro; label: DY-682; probe letters rebuilt from the primers and the genome; part of a longer molecule
[3] = target: SEP3 (Arabidopsis thaliana) (UniProt O22456); settings: homodimer; EMSA per Smaczniak et al. (ref 17) with minor modifications; in vitro wheat germ TnT proteins; pH and temperature not stated; protein translated in vitro; label: DY-682; probe letters rebuilt from the primers and the genome; part of a longer molecule
AG + SEP3 = settings: tetramer AG-SEP-AG-SEP; EMSA per Smaczniak et al. (ref 17) with minor modifications; in vitro wheat germ TnT proteins; pH and temperature not stated; protein translated in vitro; label: DY-682; probe letters rebuilt from the primers and the genome; part of a longer molecule
[4] = target: SOC1 (Arabidopsis thaliana) (UniProt O64645); settings: homodimer and homotetramer; EMSA per Smaczniak et al. (ref 17) with minor modifications; in vitro wheat germ TnT proteins; pH and temperature not stated; protein translated in vitro; residues 1-214; label: DY-682; probe letters rebuilt from the primers and the genome; part of a longer molecule

Measured: binding result

AACCATTGTGTTTATTTTGCATATACGGACACGTGTATTTTGTTACCATATTTGGACATTATTGAAACATACATAAATGCCCACTTCCCTCAACAAAGAA (double strand) [SAUR10 probe (probe 1)]
binds: all assays above
